The record followed here is publication PMC5082931.

Sequences of proteins named here, by UniProt entry; tags and fusion partners are left off. A change or cut given only in a name is not applied to a line headed by its entry.
UniProt Q8BNA6: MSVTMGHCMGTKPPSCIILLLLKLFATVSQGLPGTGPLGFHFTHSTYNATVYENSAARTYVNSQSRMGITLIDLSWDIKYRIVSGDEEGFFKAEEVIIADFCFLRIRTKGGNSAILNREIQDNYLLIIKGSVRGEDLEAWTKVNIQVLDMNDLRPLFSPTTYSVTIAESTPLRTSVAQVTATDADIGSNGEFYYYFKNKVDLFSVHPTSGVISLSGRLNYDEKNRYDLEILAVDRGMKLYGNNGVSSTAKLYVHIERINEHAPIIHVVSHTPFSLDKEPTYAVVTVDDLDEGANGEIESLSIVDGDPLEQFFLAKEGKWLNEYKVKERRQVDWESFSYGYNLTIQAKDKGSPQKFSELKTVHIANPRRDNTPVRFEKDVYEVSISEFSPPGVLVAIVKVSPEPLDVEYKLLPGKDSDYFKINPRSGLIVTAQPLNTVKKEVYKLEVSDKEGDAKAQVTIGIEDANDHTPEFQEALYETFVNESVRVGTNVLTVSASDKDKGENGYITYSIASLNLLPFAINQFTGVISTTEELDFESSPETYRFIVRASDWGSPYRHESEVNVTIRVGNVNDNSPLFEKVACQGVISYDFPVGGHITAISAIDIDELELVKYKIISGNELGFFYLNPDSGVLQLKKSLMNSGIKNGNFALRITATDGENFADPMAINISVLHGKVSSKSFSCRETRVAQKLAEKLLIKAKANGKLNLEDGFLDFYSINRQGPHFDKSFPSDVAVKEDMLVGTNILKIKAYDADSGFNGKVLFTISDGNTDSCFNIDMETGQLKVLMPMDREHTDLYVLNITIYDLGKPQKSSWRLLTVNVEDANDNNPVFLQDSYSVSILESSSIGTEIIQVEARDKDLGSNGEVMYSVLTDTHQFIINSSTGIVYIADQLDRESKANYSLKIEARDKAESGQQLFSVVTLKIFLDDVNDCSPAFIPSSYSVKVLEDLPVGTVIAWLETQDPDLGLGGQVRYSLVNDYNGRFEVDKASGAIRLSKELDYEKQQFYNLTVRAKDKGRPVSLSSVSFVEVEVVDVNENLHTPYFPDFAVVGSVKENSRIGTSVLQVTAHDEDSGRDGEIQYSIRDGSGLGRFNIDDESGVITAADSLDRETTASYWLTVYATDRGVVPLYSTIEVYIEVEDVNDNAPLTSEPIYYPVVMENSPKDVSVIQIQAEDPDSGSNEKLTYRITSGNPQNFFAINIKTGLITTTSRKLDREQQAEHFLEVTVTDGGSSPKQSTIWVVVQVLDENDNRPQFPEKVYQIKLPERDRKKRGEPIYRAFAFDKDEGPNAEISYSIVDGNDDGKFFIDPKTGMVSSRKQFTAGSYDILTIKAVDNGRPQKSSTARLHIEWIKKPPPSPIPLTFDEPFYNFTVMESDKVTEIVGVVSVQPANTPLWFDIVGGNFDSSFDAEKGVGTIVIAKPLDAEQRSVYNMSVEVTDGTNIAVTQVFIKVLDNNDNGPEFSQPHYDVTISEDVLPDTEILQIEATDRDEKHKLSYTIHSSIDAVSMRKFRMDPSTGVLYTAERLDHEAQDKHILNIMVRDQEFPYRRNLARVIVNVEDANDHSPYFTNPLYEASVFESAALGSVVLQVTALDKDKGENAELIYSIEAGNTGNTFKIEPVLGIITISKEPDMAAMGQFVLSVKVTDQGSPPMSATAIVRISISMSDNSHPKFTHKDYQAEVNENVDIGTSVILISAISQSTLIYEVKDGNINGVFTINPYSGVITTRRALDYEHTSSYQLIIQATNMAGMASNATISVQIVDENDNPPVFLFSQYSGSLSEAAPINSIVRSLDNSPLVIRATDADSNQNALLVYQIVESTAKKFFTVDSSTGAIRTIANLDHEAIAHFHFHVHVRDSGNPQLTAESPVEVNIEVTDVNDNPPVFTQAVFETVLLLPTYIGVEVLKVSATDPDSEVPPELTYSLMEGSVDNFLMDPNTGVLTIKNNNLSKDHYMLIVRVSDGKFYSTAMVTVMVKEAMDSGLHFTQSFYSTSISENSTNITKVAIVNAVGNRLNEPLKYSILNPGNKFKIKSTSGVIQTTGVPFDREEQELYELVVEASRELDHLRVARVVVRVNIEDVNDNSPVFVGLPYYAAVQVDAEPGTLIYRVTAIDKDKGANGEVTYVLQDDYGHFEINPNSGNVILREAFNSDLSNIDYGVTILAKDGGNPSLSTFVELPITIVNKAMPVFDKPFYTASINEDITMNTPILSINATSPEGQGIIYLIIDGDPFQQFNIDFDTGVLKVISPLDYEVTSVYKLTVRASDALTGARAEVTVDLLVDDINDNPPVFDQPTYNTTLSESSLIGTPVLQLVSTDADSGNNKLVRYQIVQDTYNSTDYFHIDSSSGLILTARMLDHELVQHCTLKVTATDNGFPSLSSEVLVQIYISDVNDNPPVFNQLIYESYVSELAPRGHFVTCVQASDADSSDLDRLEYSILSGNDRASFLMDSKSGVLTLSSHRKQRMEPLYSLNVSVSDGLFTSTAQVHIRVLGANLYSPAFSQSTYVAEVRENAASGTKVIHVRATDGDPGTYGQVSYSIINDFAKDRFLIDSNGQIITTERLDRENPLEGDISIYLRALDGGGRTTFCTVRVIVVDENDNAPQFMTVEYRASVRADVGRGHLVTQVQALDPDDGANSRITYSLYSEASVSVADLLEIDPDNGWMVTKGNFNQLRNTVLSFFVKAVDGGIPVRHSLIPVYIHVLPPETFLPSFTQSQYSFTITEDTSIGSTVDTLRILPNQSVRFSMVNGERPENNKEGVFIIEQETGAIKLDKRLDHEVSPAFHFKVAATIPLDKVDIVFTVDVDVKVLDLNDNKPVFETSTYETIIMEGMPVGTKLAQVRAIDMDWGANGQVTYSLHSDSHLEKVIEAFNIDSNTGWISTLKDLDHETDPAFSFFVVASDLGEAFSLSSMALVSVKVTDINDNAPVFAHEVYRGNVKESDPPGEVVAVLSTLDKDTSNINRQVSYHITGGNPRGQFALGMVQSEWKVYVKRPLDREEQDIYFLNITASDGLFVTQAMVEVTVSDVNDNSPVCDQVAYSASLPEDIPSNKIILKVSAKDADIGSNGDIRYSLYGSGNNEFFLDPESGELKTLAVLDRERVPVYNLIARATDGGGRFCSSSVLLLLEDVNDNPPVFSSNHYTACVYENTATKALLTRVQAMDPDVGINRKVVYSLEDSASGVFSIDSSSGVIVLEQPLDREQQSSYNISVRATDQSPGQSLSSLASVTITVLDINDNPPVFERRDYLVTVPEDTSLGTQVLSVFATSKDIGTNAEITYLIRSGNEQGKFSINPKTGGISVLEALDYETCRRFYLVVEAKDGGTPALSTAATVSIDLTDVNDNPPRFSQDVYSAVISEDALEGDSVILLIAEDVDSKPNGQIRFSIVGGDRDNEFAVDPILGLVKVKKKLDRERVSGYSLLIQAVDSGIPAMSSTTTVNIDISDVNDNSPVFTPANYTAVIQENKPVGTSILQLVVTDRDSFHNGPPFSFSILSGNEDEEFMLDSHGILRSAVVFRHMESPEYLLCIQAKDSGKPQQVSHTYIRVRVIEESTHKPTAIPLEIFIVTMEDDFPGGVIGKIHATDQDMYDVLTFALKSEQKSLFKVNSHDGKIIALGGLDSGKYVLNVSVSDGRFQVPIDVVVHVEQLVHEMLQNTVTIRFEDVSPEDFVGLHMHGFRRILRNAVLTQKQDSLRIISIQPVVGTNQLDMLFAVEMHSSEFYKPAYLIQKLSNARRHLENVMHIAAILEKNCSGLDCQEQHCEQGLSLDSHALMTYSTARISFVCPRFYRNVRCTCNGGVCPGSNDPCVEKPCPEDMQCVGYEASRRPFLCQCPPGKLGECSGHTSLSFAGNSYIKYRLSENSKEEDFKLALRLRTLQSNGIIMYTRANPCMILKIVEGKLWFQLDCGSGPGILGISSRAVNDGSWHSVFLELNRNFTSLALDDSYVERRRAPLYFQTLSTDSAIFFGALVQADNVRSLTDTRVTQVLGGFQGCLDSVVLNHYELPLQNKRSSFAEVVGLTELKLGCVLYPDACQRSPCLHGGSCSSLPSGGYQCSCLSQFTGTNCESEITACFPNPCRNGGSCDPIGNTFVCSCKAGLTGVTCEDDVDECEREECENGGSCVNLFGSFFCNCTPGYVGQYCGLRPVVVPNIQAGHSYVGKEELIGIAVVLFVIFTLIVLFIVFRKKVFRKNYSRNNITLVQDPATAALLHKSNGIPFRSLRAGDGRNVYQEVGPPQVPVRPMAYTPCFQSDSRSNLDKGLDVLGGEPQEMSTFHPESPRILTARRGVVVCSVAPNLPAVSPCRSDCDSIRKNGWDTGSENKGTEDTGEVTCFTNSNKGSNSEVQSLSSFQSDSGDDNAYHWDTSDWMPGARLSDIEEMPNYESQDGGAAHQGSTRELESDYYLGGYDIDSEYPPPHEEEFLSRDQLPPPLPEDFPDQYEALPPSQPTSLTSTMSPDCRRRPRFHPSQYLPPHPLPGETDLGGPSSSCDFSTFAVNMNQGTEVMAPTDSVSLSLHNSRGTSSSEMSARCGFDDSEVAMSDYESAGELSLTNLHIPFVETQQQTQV
UniProt P33176: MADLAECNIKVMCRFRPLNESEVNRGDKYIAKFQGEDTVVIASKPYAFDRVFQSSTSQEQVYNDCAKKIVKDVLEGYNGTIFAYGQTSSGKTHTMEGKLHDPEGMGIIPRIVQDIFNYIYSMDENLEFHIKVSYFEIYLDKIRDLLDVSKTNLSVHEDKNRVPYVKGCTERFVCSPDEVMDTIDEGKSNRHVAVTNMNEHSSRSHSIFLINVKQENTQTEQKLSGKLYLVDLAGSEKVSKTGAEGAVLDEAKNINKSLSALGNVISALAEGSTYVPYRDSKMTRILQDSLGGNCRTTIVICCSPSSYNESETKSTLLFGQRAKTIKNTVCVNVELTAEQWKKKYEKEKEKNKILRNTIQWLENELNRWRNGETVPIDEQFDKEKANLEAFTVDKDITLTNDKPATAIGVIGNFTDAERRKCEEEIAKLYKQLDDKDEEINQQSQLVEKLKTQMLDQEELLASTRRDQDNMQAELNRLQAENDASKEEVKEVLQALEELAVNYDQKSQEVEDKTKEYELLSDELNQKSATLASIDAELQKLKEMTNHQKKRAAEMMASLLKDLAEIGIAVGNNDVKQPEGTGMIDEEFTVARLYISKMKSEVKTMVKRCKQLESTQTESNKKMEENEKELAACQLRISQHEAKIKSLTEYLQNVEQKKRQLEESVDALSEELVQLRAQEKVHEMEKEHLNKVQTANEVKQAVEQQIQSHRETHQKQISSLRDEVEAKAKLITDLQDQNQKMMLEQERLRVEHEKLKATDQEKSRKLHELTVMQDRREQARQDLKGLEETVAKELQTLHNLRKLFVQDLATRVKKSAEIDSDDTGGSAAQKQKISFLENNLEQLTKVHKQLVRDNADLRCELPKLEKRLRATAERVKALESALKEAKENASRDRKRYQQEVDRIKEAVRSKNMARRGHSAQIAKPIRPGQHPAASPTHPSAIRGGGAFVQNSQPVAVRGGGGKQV
UniProt P08138: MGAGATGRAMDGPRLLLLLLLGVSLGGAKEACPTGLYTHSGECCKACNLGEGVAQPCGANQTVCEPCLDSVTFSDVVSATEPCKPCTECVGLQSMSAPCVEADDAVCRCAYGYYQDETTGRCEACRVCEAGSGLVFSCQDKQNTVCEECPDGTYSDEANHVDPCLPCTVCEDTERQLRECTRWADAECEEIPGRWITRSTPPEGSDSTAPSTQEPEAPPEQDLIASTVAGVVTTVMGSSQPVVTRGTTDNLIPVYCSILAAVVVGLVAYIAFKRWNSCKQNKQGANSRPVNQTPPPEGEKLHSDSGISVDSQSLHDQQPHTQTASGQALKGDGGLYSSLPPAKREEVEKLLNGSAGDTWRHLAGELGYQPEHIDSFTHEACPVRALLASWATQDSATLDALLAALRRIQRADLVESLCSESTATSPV

No constants are given. Whether binding was seen depends on the method and setting. In cells and extracts the contact can be indirect.

In one assay the target is GST-Fat3 ^ΔDNAYH (mouse) (UniProt Q8BNA6). The assay can be described thus: pull-down; GST-Fat3 fusion proteins expressed in HEK293 cells, cleared lysate (20mM Tris-HCl pH 8.0, 137mM NaCl, 2mM EDTA, 1% NP-40, 10% glycerol) on Glutathione Sepharose 4B for 2h at 4°C; endogenous co-purified proteins seen by silver staining (band identified by tandem mass spectrometry) and by Western ….

For the next assay, the target named is YFP-Kif5B (UniProt P33176). The assay can be described thus: co-IP; HEK293 cells co-transfected with YFP-Kif5B and HA-tagged Fat3 or RFP-tagged P75^NTR constructs; YFP-Kif5B precipitated with goat anti-GFP antibodies, overnight at 4°C, lysis buffer 50mM Tris-HCl pH 8.0, 150mM NaCl, 1mM EDTA, 1% NP-40, 10% glycerol; non-specific IgG as control.

Consider “Kif5B (endogenous, HEK293 cells) (from UniProt P33176 1-963)”, for which the binding entry with GST-Fat3 ^ΔDNAYH (mouse) is “no binding”.
For “P75-RFP ^ΔDGGLYS (from UniProt P08138) (receptor)”, the binding result in the assay with YFP-Kif5B is reported as “no binding”.
